Values quoted from earlier work in patent US10132799B2, “Screening of conjugated antibodies” (Innate Pharma, priority 2012, dated 2018).

Conditions: general statement on poorly soluble hydrophobic drugs

Row | SMILES | solubility in water
1 | CC(=O)O[C@H]1C(=O)[C@@]2(C)[C@H]([C@H](OC(=O)c3ccccc3)[C@]3(O)C[C@H](OC(=O)[C@H](O)[C@@H](NC(=O)c4ccccc4)c4ccccc4)C(C)=C1C3(C)C)[C@]1(OC(C)=O)CO[C@@H]1C[C@@H]2O [PTX, paclitaxel] | less than 1 μg/ml
2 | CC[C@@]1(O)C(=O)OCc2c1cc1n(c2=O)Cc2cc3ccccc3nc2-1 [CPT, camptothecin] | about 2.5 μg/ml
